Measurements taken from the supplement of paper PMC10849652.
The other results are listed elsewhere or left out.

Amino acid sequences for entries named in this document (tags omitted). A change or cut given only in a name is not applied to a line headed by its entry.
UniProt O00488: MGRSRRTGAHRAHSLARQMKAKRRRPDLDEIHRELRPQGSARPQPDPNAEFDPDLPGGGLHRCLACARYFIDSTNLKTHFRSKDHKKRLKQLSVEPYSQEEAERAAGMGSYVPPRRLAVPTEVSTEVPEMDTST
UniProt Q86UK7: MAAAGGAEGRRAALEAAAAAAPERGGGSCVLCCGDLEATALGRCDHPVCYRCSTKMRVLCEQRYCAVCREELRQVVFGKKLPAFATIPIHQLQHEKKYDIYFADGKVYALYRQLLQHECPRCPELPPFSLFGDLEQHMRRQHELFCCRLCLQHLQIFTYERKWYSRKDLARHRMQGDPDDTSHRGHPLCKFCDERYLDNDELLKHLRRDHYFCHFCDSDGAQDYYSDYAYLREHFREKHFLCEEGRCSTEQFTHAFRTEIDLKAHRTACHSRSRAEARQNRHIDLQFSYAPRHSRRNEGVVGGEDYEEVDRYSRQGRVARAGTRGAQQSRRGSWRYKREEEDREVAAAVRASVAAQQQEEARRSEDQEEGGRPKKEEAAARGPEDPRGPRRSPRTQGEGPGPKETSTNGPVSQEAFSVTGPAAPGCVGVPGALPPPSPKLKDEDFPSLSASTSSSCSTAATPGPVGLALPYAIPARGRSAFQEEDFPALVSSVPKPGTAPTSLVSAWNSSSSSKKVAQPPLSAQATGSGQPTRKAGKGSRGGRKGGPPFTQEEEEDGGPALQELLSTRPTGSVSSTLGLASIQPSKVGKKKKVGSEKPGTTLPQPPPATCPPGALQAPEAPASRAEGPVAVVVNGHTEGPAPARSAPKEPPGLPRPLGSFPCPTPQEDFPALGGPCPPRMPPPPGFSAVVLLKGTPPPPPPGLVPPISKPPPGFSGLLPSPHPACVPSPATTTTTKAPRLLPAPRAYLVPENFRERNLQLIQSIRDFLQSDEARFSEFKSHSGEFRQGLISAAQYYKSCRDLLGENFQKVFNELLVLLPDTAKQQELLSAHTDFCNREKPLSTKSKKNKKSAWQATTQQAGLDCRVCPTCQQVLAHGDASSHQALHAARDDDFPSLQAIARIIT
UniProt Q5T7W0: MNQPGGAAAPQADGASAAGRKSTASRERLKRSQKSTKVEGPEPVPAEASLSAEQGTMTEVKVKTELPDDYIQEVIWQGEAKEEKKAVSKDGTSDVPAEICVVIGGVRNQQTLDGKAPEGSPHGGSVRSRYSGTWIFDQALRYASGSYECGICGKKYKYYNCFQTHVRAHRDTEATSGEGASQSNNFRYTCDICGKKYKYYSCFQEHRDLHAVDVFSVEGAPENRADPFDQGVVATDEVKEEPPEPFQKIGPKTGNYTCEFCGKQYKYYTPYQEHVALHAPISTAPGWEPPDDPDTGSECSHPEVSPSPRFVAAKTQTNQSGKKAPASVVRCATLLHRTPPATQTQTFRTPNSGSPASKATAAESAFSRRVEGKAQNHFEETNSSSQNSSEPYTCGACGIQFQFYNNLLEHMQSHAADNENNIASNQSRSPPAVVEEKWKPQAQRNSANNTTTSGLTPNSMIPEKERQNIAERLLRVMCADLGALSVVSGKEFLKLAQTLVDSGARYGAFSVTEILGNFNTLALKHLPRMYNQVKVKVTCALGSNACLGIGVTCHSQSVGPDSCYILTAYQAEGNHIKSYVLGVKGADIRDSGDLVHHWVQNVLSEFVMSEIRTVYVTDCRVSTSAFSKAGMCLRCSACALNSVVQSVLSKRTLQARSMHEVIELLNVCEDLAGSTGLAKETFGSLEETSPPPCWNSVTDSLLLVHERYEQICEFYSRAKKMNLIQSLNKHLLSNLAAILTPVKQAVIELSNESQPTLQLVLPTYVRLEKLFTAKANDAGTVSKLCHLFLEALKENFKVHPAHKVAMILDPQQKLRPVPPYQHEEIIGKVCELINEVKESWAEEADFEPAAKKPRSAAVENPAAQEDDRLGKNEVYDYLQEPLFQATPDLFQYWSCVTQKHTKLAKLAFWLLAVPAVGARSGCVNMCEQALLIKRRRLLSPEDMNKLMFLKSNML
UniProt Q969S3: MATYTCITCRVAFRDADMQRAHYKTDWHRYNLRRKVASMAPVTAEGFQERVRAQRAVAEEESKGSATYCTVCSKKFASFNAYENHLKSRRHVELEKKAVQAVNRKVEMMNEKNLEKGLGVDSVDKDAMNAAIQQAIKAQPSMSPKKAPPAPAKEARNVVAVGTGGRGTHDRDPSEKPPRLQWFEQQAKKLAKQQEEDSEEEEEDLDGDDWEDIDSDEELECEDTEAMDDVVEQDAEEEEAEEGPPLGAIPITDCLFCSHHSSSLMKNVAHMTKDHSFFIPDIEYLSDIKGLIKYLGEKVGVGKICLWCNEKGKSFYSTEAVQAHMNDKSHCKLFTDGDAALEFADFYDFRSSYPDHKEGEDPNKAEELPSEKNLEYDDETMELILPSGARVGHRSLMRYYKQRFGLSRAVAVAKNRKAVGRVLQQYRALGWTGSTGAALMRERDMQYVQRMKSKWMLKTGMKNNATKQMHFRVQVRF
UniProt Q9UEG4: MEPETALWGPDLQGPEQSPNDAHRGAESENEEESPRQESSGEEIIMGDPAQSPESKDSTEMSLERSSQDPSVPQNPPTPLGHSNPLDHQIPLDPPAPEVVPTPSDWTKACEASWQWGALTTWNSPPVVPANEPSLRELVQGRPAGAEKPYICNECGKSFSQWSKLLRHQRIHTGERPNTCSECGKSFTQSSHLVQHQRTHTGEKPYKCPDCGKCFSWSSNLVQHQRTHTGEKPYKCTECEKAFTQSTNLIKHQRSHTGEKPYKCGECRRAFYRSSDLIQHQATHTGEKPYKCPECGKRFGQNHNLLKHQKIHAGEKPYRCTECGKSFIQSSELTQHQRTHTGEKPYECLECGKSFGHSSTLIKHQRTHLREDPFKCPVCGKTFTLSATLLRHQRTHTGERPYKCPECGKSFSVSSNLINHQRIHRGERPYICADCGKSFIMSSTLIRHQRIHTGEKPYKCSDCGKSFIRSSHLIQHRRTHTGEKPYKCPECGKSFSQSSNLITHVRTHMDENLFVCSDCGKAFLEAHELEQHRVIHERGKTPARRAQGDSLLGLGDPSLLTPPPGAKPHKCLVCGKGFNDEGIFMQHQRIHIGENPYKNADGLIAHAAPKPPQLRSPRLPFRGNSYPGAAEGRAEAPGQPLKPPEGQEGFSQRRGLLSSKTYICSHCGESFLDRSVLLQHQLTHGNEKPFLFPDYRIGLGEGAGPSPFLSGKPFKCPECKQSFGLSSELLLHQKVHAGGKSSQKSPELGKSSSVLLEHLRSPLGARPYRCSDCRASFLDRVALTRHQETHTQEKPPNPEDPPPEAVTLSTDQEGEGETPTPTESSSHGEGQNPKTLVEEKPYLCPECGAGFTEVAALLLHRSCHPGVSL
UniProt Q14966: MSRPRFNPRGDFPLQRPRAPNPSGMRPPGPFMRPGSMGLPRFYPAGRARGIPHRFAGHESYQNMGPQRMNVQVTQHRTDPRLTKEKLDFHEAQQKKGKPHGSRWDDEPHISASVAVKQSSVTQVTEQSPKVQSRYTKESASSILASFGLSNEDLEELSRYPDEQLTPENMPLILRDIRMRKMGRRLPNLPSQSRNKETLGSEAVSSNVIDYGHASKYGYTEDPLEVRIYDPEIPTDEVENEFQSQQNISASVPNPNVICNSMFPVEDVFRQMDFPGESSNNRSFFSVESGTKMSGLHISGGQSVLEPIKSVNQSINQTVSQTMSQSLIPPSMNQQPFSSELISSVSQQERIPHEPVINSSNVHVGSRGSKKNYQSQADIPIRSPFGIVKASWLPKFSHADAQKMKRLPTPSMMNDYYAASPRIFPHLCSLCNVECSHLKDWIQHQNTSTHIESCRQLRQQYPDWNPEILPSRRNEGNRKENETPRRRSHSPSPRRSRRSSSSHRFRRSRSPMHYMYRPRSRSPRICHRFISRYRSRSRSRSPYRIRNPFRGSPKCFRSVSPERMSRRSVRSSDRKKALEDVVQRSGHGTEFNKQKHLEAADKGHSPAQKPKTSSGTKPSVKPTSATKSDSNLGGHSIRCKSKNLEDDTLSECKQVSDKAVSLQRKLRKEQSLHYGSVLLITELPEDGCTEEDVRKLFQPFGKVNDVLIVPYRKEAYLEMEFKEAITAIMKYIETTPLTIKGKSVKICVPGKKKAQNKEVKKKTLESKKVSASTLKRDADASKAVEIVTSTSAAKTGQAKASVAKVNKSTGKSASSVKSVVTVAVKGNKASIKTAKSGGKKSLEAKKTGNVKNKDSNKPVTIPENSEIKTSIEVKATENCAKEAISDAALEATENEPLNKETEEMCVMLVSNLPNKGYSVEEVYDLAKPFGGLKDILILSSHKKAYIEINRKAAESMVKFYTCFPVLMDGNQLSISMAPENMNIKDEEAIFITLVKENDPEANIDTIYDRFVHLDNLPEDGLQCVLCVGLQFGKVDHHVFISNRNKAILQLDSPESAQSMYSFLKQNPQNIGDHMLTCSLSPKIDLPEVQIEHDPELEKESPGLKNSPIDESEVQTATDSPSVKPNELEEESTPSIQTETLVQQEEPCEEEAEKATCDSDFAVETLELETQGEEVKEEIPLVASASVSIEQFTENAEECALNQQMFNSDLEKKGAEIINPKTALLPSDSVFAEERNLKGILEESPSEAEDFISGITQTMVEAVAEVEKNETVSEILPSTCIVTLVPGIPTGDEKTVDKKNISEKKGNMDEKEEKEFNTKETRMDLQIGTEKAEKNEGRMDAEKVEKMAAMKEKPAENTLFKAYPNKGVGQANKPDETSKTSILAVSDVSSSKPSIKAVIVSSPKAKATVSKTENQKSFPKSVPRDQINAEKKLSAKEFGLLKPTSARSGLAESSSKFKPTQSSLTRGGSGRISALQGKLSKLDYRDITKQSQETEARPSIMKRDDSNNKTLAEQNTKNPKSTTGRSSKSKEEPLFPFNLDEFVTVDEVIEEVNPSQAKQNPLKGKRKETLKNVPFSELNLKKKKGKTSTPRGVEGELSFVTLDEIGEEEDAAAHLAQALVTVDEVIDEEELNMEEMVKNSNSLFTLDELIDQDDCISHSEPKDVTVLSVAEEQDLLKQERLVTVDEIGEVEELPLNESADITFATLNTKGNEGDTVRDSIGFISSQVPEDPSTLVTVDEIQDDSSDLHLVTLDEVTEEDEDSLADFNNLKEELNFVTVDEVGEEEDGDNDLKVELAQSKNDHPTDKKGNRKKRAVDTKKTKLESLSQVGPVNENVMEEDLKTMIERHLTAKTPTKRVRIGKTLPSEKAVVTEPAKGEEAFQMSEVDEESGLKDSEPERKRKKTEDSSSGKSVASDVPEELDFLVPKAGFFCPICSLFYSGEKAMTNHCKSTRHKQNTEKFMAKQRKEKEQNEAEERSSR
UniProt Q9UID6: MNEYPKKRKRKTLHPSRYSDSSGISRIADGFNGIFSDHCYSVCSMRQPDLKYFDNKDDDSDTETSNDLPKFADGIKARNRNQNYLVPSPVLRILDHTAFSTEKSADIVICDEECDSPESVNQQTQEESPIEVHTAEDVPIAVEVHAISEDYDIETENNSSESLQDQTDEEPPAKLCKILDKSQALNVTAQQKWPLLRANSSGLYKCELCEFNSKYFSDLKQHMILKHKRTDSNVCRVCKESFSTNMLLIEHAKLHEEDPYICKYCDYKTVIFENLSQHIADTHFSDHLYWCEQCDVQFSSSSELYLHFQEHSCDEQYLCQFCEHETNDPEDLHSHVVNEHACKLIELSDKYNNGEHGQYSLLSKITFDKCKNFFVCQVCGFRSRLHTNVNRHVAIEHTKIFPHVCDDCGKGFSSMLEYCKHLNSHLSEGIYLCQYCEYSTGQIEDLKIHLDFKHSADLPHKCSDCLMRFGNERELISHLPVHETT

Legend:
Experiment in all cases: log2 fold change, soluble protein after heating vs DMSO (PISA); higher = thermal stabilisation; K562 cells, 10 uM, 30 min; active = over 0.2 and 3.5 SD of the protein, either way, in both replicates (recomputed)
ZNF593 = ZNF593 (UniProt O00488)
In short: (§1)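 Soluble protein was defined as the supernatant after 21,000xg for 90 min. It came from K562 cells at 2×10^6 cells/mL given 10 μM compound for 30 min, heated in aliquots for 3 min across 48°C-58°C, pooled, and extracted in PBS with 0.5% NP-40 at 4°C, and was quantified by TMTpro 16plex LC-MS/MS with equalised channel sums. Thermal stability against control samples, from duplicates, is reported as log2 fold change.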

ZNF598 = ZNF598 (UniProt Q86UK7)
In short: as §1

ZNF609 = ZNF609 (UniProt O15014)
In short: as §1

ZNF618 [1] = target: ZNF618 (UniProt B1ALC2)
In short: as §1

ZNF618 [2] = target: ZNF618 (UniProt Q5T7W0)
In short: as §1

ZNF622 = ZNF622 (UniProt Q969S3)
In short: as §1

ZNF629 = ZNF629 (UniProt Q9UEG4)
In short: as §1

ZNF638 = ZNF638 (UniProt Q14966)
In short: as §1

ZNF639 = ZNF639 (UniProt Q9UID6)
In short: as §1

ZNF618 isoform 2 = ZNF618 isoform 2 (UniProt Q5T7W0)
In short: as §1

Row | Structure (SMILES) | log2 fold change (ZNF593) | log2 fold change (ZNF598) | log2 fold change (ZNF609) | log2 fold change (ZNF618 [1]) | log2 fold change (ZNF618 [2]) | log2 fold change (ZNF622) | log2 fold change (ZNF629) | log2 fold change (ZNF638) | log2 fold change (ZNF639) | log2 fold change (ZNF618 isoform 2)
1 | Cc1cn(-c2cc(NC(=O)c3ccc(C)c(Nc4nccc(-c5cccnc5)n4)c3)cc(C(F)(F)F)c2)cn1 [nilotinib] | inactive: -0.073 | inactive: -0.073 | inactive: 0.03 | inactive: -0.004 | inactive: 0.007 | inactive: 0.046 | inactive: 0.151 | – | – | –
2 | O=C(CCCCCCC(=O)Nc1ccccc1)NO [vorinostat] | inactive: 0.033 | inactive: 0.098 | inactive: -0.128 | inactive: 0.025 | inactive: -0.017 | inactive: -0.049 | inactive: -0.089 | inactive: 0.015 | inactive: -0.011 | –
3 | Cn1cc(-c2ccc3c(c2)CCN3C(=O)Cc2cccc(C(F)(F)F)c2)c2c(N)ncnc21 | inactive: -0.288 | inactive: 0.085 | inactive: -0.041 | inactive: -0.012 | inactive: -0.036 | inactive: 0.067 | inactive: -0.3 | inactive: -0.087 | – | –
4 | COc1cc2ncnc(Nc3ccc(F)c(Cl)c3)c2cc1OCCCN1CCOCC1 [gefitinib] | inactive: -0.073 | inactive: -0.044 | inactive: -0.069 | inactive: 0.054 | inactive: -0.016 | inactive: 0 | inactive: 0.038 | – | – | –
5 | CC(C)(C)Cn1c(N)nc2ccc(-c3[nH]c(C(C)(C)C)nc3-c3ccc(F)cc3)nc21 [ralimetinib] | inactive: 0.11 | inactive: 0.126 | inactive: -0.053 | – | inactive: 0.044 | inactive: -0.019 | inactive: 0.103 | inactive: 0.046 | – | inactive: -0.001
6 | COc1cc2nc(-c3cc(F)ccc3O)nc(N[C@@H]3CNC[C@H]3C(C)(C)O)c2cc1OC | inactive: -0.213 | inactive: 0.02 | inactive: 0.205 | – | inactive: -0.025 | inactive: 0.028 | inactive: -0.018 | – | – | inactive: -0.081
7 | C[C@@H]1COCCN1c1cc(C2(S(C)(=O)=O)CC2)nc(-c2cccc3[nH]ccc23)n1 | inactive: -0.307 | inactive: 0.028 | inactive: -0.064 | – | inactive: 0.018 | inactive: 0.067 | inactive: -0.281 | inactive: -0.001 | – | inactive: -0.131
8 | Cc1ccc(C(=O)N(CCCN)[C@@H](c2nc3cc(Cl)ccc3c(=O)n2Cc2ccccc2)C(C)C)cc1 [ispinesib] | inactive: -0.156 | inactive: -0.057 | inactive: 0.014 | – | inactive: -0.105 | inactive: 0.062 | inactive: -0.187 | inactive: -0.127 | – | inactive: 0.095
9 | CC(C)(O)CC(=O)NCCn1ccc2ncnc(Nc3ccc(Oc4cccc(C(F)(F)F)c4)c(Cl)c3)c21 | inactive: 0.132 | inactive: -0.093 | inactive: 0.101 | – | inactive: -0.181 | inactive: -0.078 | inactive: 0.054 | inactive: -0.045 | – | inactive: -0.018
10 | NC(=O)c1ccc2nc(-c3ccc(Oc4ccc(Cl)cc4)cc3)[nH]c2c1 | inactive: 0.016 | inactive: -0.012 | inactive: 0.029 | – | inactive: 0.018 | inactive: 0.007 | inactive: -0.092 | inactive: 0.006 | – | inactive: -0.077
11 | CNC(=O)c1ccccc1Nc1nc(Nc2ccc(N3CCOCC3)cc2OC)ncc1Cl | inactive: 0.127 | inactive: -0.006 | inactive: -0.057 | – | inactive: -0.046 | inactive: 0.045 | inactive: 0.023 | inactive: -0.095 | – | inactive: 0.276
12 | CC(C)c1cnn2c(NCc3ccccc3)cc(NCCCCCCN)nc12 | inactive: -0.092 | inactive: -0.043 | inactive: -0.042 | – | inactive: 0.031 | inactive: -0.011 | inactive: 0.116 | inactive: -0.124 | – | inactive: -0.095
13 | CC[C@H](C)[C@H](NC(=O)[C@H]([C@@H](C)CC)N(C)C(C)=O)C(=O)N[C@H](C(=O)N[C@@H](CC(C)C)C(=O)[C@@]1(C)CO1)[C@@H](C)O [epoxomicin] | inactive: -0.15 | inactive: -0.005 | inactive: -0.271 | – | inactive: 0.098 | inactive: 0.056 | inactive: -0.162 | inactive: 0.084 | – | inactive: -0.047
14 | Cc1ccc(Sc2cncc3sc(C(N)=O)cc23)cc1 | inactive: -0.127 | inactive: 0.015 | inactive: -0.045 | – | inactive: 0.019 | inactive: -0.022 | inactive: -0.054 | – | – | inactive: -0.015
15 | Oc1cc(-c2nc(-c3ccccc3)[nH]c2-c2ccncc2)ccc1Cl | inactive: -0.138 | inactive: 0.087 | inactive: 0.01 | – | inactive: 0.011 | inactive: 0.016 | inactive: -0.179 | inactive: -0.025 | – | inactive: -0.181
16 | CC[C@@H]1C(=O)N(C)c2cnc(Nc3ccc(C(=O)N[C@H]4CC[C@H](N5CCN(CC6CC6)CC5)CC4)cc3OC)nc2N1C(C)C [volasertib] | inactive: 0.382 | inactive: -0.123 | inactive: -0.328 | – | inactive: 0.018 | inactive: 0.138 | inactive: 0.197 | – | – | inactive: -0.007
17 | Cn1cc(-c2ccc3nnc(C(F)(F)c4ccc5ncccc5c4)n3n2)cn1 | inactive: -0.118 | inactive: 0.021 | inactive: -0.286 | – | inactive: -0.039 | inactive: 0.024 | inactive: -0.293 | inactive: 0.007 | – | inactive: 0.143
18 | CC[C@@H]1C(=O)N(C)c2cnc(Nc3ccc(C(=O)NC4CCN(C)CC4)cc3OC)nc2N1C1CCCC1 | inactive: 0.152 | inactive: -0.037 | inactive: 0.047 | – | inactive: -0.019 | inactive: 0.069 | inactive: 0.134 | inactive: -0.02 | inactive: -0.382 | inactive: -0.119
19 | CCN(CC)Cc1ccc2cc(COC(=O)Nc3ccc(C(=O)NO)cc3)ccc2c1 [givinostat] | inactive: 0.021 | inactive: 0.036 | inactive: 0.063 | – | inactive: 0.004 | inactive: -0.004 | inactive: 0.051 | inactive: 0.099 | – | inactive: 0.066
20 | Cc1cc(SCc2sc(-c3ccc(C(F)(F)F)cc3)nc2C)ccc1OCC(=O)O | inactive: -0.121 | inactive: 0.045 | inactive: -0.134 | – | inactive: 0.023 | inactive: -0.009 | inactive: 0.008 | inactive: -0.187 | – | inactive: 0.078
21 | O=C1NC(=O)C(c2cnc3ccccn23)=C1c1cn2c3c(cc(F)cc13)CN(C(=O)N1CCCCC1)CC2 | inactive: 0.08 | inactive: -0.03 | active: -0.571 | – | inactive: -0.063 | inactive: 0.043 | inactive: 0.167 | inactive: -0.044 | – | inactive: -0.012
22 | C#Cc1cccc(Nc2ncnc3cc(OCCOC)c(OCCOC)cc23)c1 [erlotinib] | inactive: -0.213 | inactive: 0.105 | inactive: 0.03 | – | inactive: 0.021 | inactive: 0.056 | inactive: -0.27 | inactive: 0.049 | – | inactive: -0.189
23 | CN1CCN(CCOc2cc(OC3CCOCC3)c3c(Nc4c(Cl)ccc5c4OCO5)ncnc3c2)CC1 [saracatinib] | inactive: 0.091 | inactive: -0.007 | inactive: 0.047 | – | inactive: 0.102 | inactive: -0.005 | inactive: -0.107 | inactive: 0.019 | – | inactive: 0.095
24 | CCCCN(Cc1ccc(C(=O)NO)cc1)C(=O)Nc1ccccc1 [Nexturastat A] | inactive: 0.151 | inactive: 0.044 | active: 0.475 | – | inactive: -0.03 | inactive: -0.086 | inactive: 0.263 | inactive: 0.168 | – | inactive: 0.15
25 | Fc1ccc(Cl)cc1-c1nc(Nc2ccncc2)c2nccnc2n1 | inactive: -0.287 | inactive: -0.029 | inactive: -0.302 | – | inactive: 0.128 | inactive: 0.038 | inactive: -0.364 | inactive: -0.029 | – | inactive: 0.017
26 | Cn1c2cc(S(C)=O)sc2c2cnn(Cc3cccc(N)c3)c(=O)c21 (centres undefined) | inactive: 0.225 | inactive: 0.034 | inactive: 0.021 | – | inactive: 0.003 | inactive: -0.061 | inactive: 0.259 | inactive: 0.073 | – | inactive: 0.139
27 | Cc1ccc(NC(=O)c2cccc(C(C)(C)C#N)c2)cc1Nc1ccc2ncn(C)c(=O)c2c1 | inactive: 0.016 | inactive: -0.002 | inactive: -0.046 | – | inactive: 0.03 | inactive: 0.048 | inactive: -0.059 | inactive: -0.03 | inactive: -0.205 | inactive: 0.012
28 | Cc1ccc(NC(=O)c2cccc(N(C)C)c2)cc1NC(=O)c1ccc(O)cc1 | inactive: 0.038 | inactive: 0.019 | inactive: 0.162 | – | inactive: 0.002 | inactive: -0.036 | inactive: 0.129 | inactive: 0.064 | – | inactive: -0.172
29 | Cn1cncc1[C@@](N)(c1ccc(Cl)cc1)c1ccc2c(c1)c(-c1cccc(Cl)c1)cc(=O)n2C [tipifarnib] | inactive: 0.007 | inactive: -0.042 | inactive: 0 | – | inactive: 0.026 | inactive: -0.048 | inactive: 0.025 | – | – | inactive: 0.135

Part of the list above, as tab-separated lines.
Row	Structure (SMILES)	log2 fold change (ZNF593)	log2 fold change (ZNF598)	log2 fold change (ZNF609)	log2 fold change (ZNF618 [1])	log2 fold change (ZNF618 [2])	log2 fold change (ZNF622)	log2 fold change (ZNF629)	log2 fold change (ZNF638)	log2 fold change (ZNF639)	log2 fold change (ZNF618 isoform 2)
4	COc1cc2ncnc(Nc3ccc(F)c(Cl)c3)c2cc1OCCCN1CCOCC1 [gefitinib]	inactive: -0.073	inactive: -0.044	inactive: -0.069	inactive: 0.054	inactive: -0.016	inactive: 0	inactive: 0.038	–	–	–
5	CC(C)(C)Cn1c(N)nc2ccc(-c3[nH]c(C(C)(C)C)nc3-c3ccc(F)cc3)nc21 [ralimetinib]	inactive: 0.11	inactive: 0.126	inactive: -0.053	–	inactive: 0.044	inactive: -0.019	inactive: 0.103	inactive: 0.046	–	inactive: -0.001
